Measured values taken from patent publication US4487932A, “2,6-Dimethyl-3,5-bis-(1-adamantylhydr oxycarbonyl)-4-(2-difluoromethoxyphenyl)-1,4-dihydropyridine” (Institut Organicheskogo Sinteza Akademii Nauk Latviiskoi, priority 1983, dated 1984).
Where two headings read alike, the source gives them in different places.

Experiments:
[1] = test system: white mice; experiment: in vivo; conditions: white mice, intraperitoneal
From the text: (§1) The studies of acute toxicity established the present compound to be low-toxic.
(§2) Acute toxicity of investigated compounds for
(§3) white mice upon intraperitoneal administration

[2] = in vivo; conditions: mouse, in vivo, ip
From the text: as §1, §2, §3

[3] = test system: coronary circulation / cardiovascular system; conditions: for Increase of space velocity of coronary blood flow / Lowering of arterial pressure / Duration / Change of systemic venous pressure: narcotized cats; for Duration: increase of coronary blood flow
From the text: The action of 2,6-dimethyl-3,5-bis-(1-adamantylhydroxycarbonyl)-4-(2-difluoromethoxyphenyl)-1,4-dihydropyridine on the cardiovascular system was investigated in experiments with cats, rats, and mice.

COC(=O)C1=C(C)NC(C)=C(C(=O)OC)C1c1ccccc1[N+](=O)[O-] [Niphedipine, 2,6-dimethyl-4-o-nitrophenyl-3,5-dimethoxycarbonyl-1,4-dihydropyridine, reference compound]
LD50 [1]: 190(146.15-247) mg/kg
LD50 [2]: 190 mg/kg
aortal blood flow ([3]; doses exceeding 0.02 mg/kg): a pronounced diminution of the aortal blood flow
sharp drop of the arterial pressure (% of the initial one) ([3]; doses exceeding 0.02 mg/kg): ≥ 40%
systemic venous pressure ([3]; doses exceeding 0.02 mg/kg): an increase of the systemic venous pressure
Increase of space velocity of coronary blood flow ([3]; dose 0.005 mg/kg): 12%
Lowering of arterial pressure ([3]; dose 0.005 mg/kg): 12%
Duration ([3]; dose 0.005 mg/kg): 12 min
Change of systemic venous pressure ([3]; dose 0.02 mg/kg): +5%
Increase of space velocity of coronary blood flow ([3]; dose 0.02 mg/kg): 70%
Lowering of arterial pressure ([3]; dose 0.02 mg/kg): 35%
Duration ([3]; dose 0.02 mg/kg): 22 min
Change of systemic venous pressure ([3]; dose 0.06 mg/kg): +60%
Increase of space velocity of coronary blood flow ([3]; dose 0.06 mg/kg): 130%
Lowering of arterial pressure ([3]; dose 0.06 mg/kg): 60%
Duration ([3]; dose 0.06 mg/kg): 45 min
